Experimental data taken from PubChem BioAssay AID493014 (National Center for Advancing Translational Sciences (NCATS), 2011).
The list shows a part of the results. Shown are side measurements of this screen, not its main read-out; they come without a call. Most of these compounds were active or inconclusive in the main read-out, so they are no random draw. Potencies come from curve fits of mixed quality, noted in brackets.

Test: qHTS Assay to Find Inhibitors of Chronic Active B-Cell Receptor Signaling
Conditions: ABC-DLBCL IkBa-CBG/CBR reporter, luminescence ratio (green luciferase fused to IkBa over red control in TMD8 lymphoma cells), 4 h
Outline: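 TMD8 ABC-DLBCL cells carrying doxycycline-inducible green luciferase fused to IkappaBalpha plus unfused red luciferase were exposed to compounds (up to 46 uM) for 4 hrs at 37C. Activity came from the overlap-corrected green/red luminescence ratio.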

[1] = measured here: CBR red luminescence, cell number
[2] = measured here: IkBa-CBG green luminescence

**Q.** For `Cc1cccc(N(C(=O)C(F)(F)F)C(C(=O)NC2CCCCC2)c2cccs2)c1` (stereo unspecified), which AC50 [1] is on record?
**A.** Its AC50 is 3.55 µM [falling, partial curve, poor fit].

**Q.** For `COc1cc(CNC(C)C)ccc1OCC(=O)Nc1cccc2ccccc12`, which AC50 [1] is on record?
**A.** The AC50 was 25.1 µM [falling, single point].

**Q.** For `Cc1ccc(-n2c(SCC(N)=O)nc3c([nH]c4ccccc43)c2=O)cc1`, which AC50 [1] is on record?
**A.** The AC50 was 0.651 µM [falling, full curve].

**Q.** For `Cc1ccc(Nc2nc(N3CCOCC3)c3ccccc3n2)cc1`, which AC50 [1] is on record?
**A.** The AC50 was 17.8 µM [falling, single point].

**Q.** Which AC50 [1] does the source give for `COC(=O)c1sc(NC(=O)c2ccoc2C)nc1C` here?
**A.** The AC50 was 13 µM [falling, partial curve].

**Q.** Which AC50 [1] does the source give for `Cc1cccc2cc3c(nc12)-c1ccccc1C3=O` here?
**A.** The AC50 was 11.2 µM [rising, partial curve].

**Q.** With `Cc1ccc2nc(SCC(=O)c3ccc(Cl)cc3)nc(=O)n2c1` as the molecule, how does the AC50 [1] read?
**A.** The AC50 was 0.461 µM [falling, full curve, poor fit].

**Q.** Which AC50 [1] does the source give for `CCOc1ccccc1NC(=O)COc1ccc(S(=O)(=O)N2CCCC2)cc1` here?
**A.** Its AC50 is 20 µM [falling, single point].

**Q.** For `CCn1cnc2c1c(=O)n(Cc1nnc3n1-c1ccccc1SC3)c(=O)n2Cc1ccccc1`, which AC50 [1] is on record?
**A.** The AC50 was 16.4 µM [falling, partial curve, poor fit].

**Q.** Which AC50 [1] does the source give for `CCCn1c(N/N=C\C=C\c2ccccc2)nc2c1c(=O)[nH]c(=O)n2C` here?
**A.** Its AC50 is 22.4 µM [rising, partial curve, poor fit].

**Q.** For `Cn1c(-c2ccccc2)cnc1SCc1nc2ccccc2c(=O)[nH]1`, which AC50 [1] is on record?
**A.** Its AC50 is 2.06 µM [rising, full curve, poor fit].

**Q.** For `O=C(CNC(=O)C(c1ccccc1)c1ccccc1)OCc1ccccc1`, which AC50 [1] is on record?
**A.** The AC50 was 3.55 µM [rising, partial curve, poor fit].

**Q.** For `CCCCCc1ccc(C(=O)CCCC)c(=S)[nH]1`, which AC50 [1] is on record?
**A.** The AC50 was 14.1 µM [rising, partial curve, poor fit].

**Q.** For `CCS(=O)(=O)N1CCN(C2Cc3ccccc3C2)CC1`, which AC50 [1] is on record?
**A.** The AC50 was 14.6 µM [rising, partial curve, poor fit].

**Q.** With `Cc1c(OCC(=O)N2CCC(C(=O)O)CC2)ccc2c1oc(=O)c1ccccc12` as the molecule, how does the AC50 [1] read?
**A.** Its AC50 is 5.01 µM [falling, partial curve].

**Q.** With `Nc1n[nH]c(N)c1N=Nc1cccc(F)c1` as the molecule, how does the AC50 [1] read?
**A.** The AC50 was 4.61 µM [rising, single point].

**Q.** Which AC50 [1] does the source give for `CC1CCN(C(=O)COC(=O)/C=C/c2ccc([N+](=O)[O-])cc2)CC1` here?
**A.** Its AC50 is 6.51 µM [rising, single point].

**Q.** With `Oc1ccccc1-n1nc2ccc3nonc3c2n1` as the molecule, how does the AC50 [1] read?
**A.** The AC50 was 11.2 µM [rising, single point].

**Q.** With `COc1cc2c(C(=O)N(C)c3ccc(F)cc3)cn(C)c(=O)c2cc1OC` as the molecule, how does the AC50 [1] read?
**A.** Its AC50 is 35.5 µM [falling, partial curve, poor fit].

**Q.** For `Cn1nc(C(F)(F)F)c(/C=N/OC(=O)c2ccccc2)c1Sc1ccc(Cl)cc1`, which AC50 [2] is on record?
**A.** Its AC50 is 9.2 µM [falling, partial curve].

**Q.** Which AC50 [1] does the source give for `O=C(COC(=O)C1=COCCO1)Nc1cc(S(=O)(=O)N2CCCCC2)ccc1Cl` here?
**A.** Its AC50 is 15.8 µM [falling, partial curve].

**Q.** With `Cc1ccsc1/C=C(\C#N)C(=O)NC1CCS(=O)(=O)C1` (stereo unspecified) as the molecule, how does the AC50 [1] read?
**A.** The AC50 was 35.5 µM [rising, single point].

**Q.** For `CCCCN1CC(=O)N2[C@H]3c4cc(Cl)ccc4OC[C@@H]3[C@H](c3ccccc3)[C@]2(C)C1=O`, which AC50 [1] is on record?
**A.** Its AC50 is 29.1 µM [falling, single point].

**Q.** What about the AC50 [2] of the same molecule?
**A.** The AC50 was 16.4 µM [rising, partial curve, poor fit].

**Q.** For `CC(=O)Nc1ccc(CNc2ncnc3ccc(-c4c(C)noc4C)cc23)cc1`, which AC50 [1] is on record?
**A.** The AC50 was 10.3 µM [rising, partial curve].

**Q.** With `O=C(NNC(=O)c1cccc(C(F)(F)F)c1)c1ccncc1` as the molecule, how does the AC50 [1] read?
**A.** The AC50 was 12.6 µM [falling, single point].

**Q.** Which AC50 [1] does the source give for `CCCCc1c(O)nc(SCC(=O)c2ccccc2)[nH]c1=O` here?
**A.** Its AC50 is 6.51 µM [rising, single point].

**Q.** With `COc1ccc(N2CCN(c3cc(=O)n(Cc4ccc(F)cc4)c(=O)[nH]3)CC2)cc1` as the molecule, how does the AC50 [1] read?
**A.** The AC50 was 32.6 µM [rising, single point].

**Q.** For `c1ccc2c(C3=NNC(=NC4CCCCC4)SC3)c[nH]c2c1`, which AC50 [1] is on record?
**A.** Its AC50 is 1.16 µM [falling, partial curve, poor fit].

**Q.** Which AC50 [1] does the source give for `COCC(=O)n1nc(-c2ccc(C)cc2)nc1NCc1ccc(F)cc1` here?
**A.** Its AC50 is 5.01 µM [rising, partial curve].

**Q.** Which AC50 [1] does the source give for `Cc1nc(-c2ccc(Cl)cc2)sc1C1(C)CC(c2c(Cl)cccc2Cl)=NO1` (stereo unspecified) here?
**A.** Its AC50 is 17.8 µM [rising, single point].

**Q.** For `CN(CC(=O)Nc1ccccc1Cl)CC(=O)Nc1c(F)cccc1F`, which AC50 [1] is on record?
**A.** Its AC50 is 35.5 µM [rising, single point].

**Q.** With `O=c1cc(N2CCOCC2)[nH]c(=O)n1Cc1ccc(F)cc1` as the molecule, how does the AC50 [1] read?
**A.** The AC50 was 0.92 µM [falling, partial curve, poor fit].

**Q.** For `Cc1cc(NC(=O)CSc2nc(CCC3CCCC3)nc3ccccc23)no1`, which AC50 [1] is on record?
**A.** The AC50 was 16.4 µM [falling, partial curve, poor fit].

**Q.** For `CCOC(=O)C1CCN(C(=O)COc2cc(C)c(Br)c(C)c2)CC1`, which AC50 [1] is on record?
**A.** The AC50 was 0.891 µM [falling, full curve].

**Q.** With `C=CCn1c(C)csc1=Nc1ccc(C(C)=O)cc1` as the molecule, how does the AC50 [1] read?
**A.** The AC50 was 2.82 µM [rising, full curve].

**Q.** For `COc1ccc(C2C(CC(=O)O)=C(O)C(=O)N2c2ccccc2)cc1` (stereo unspecified), which AC50 [1] is on record?
**A.** Its AC50 is 7.08 µM [falling, partial curve, poor fit].

**Q.** With `O=C(NC1CCCCCCC1)c1ccc2c(c1)OCO2` as the molecule, how does the AC50 [1] read?
**A.** Its AC50 is 10.3 µM [falling, partial curve, poor fit].

**Q.** With `Cc1ccc2c(c1)/C(=C/c1ccc(F)cc1)C(=O)N2` as the molecule, how does the AC50 [1] read?
**A.** The AC50 was 35.5 µM [falling, single point].

**Q.** With `C=CCOc1cccc(C2C(C(=O)c3ccc(C)o3)=C(O)C(=O)N2c2nccs2)c1` (stereo unspecified) as the molecule, how does the AC50 [1] read?
**A.** The AC50 was 6.31 µM [falling, single point].

**Q.** With `O=C(CCS(=O)(=O)c1ccccc1)Nc1nccs1` as the molecule, how does the AC50 [1] read?
**A.** The AC50 was 23.1 µM [falling, single point].

**Q.** With `O=C(COC(=O)/C=C/c1ccc(OC(F)F)cc1)NC(=O)NCc1ccccc1` as the molecule, how does the AC50 [1] read?
**A.** The AC50 was 29.1 µM [rising, single point].

**Q.** Which AC50 [1] does the source give for `O=S(=O)(c1cccs1)N1CCC(CO)(Cc2ccc(Cl)cc2)CC1` here?
**A.** Its AC50 is 35.5 µM [falling, partial curve, poor fit].

**Q.** With `O=[N+]([O-])c1cc(C(F)(F)F)ccc1NCCc1c[nH]c2ccc(O)cc12` as the molecule, how does the AC50 [1] read?
**A.** The AC50 was 2.91 µM [rising, partial curve, poor fit].

**Q.** With `Cn1cc(Cl)c(C(=O)NNC(=S)Nc2cccc(Cl)c2)n1` as the molecule, how does the AC50 [1] read?
**A.** The AC50 was 7.94 µM [falling, partial curve].

**Q.** For `Cc1cccc(N2C(=O)CC(Sc3ccccc3C(=O)O)C2=O)c1` (stereo unspecified), which AC50 [1] is on record?
**A.** The AC50 was 11.6 µM [falling, partial curve, poor fit].

**Q.** Which AC50 [1] does the source give for `COc1ccc(C(=O)/C=C/Nc2cc(C)ccn2)cc1` here?
**A.** Its AC50 is 8.91 µM [falling, partial curve].

**Q.** With `C(=N\Nc1nc2ccccc2[nH]1)/c1ccc2c(c1)OCO2` as the molecule, how does the AC50 [1] read?
**A.** Its AC50 is 10 µM [falling, partial curve].

**Q.** Which AC50 [1] does the source give for `COc1ccccc1C(=O)COC(=O)c1cnc(C)cn1` here?
**A.** The AC50 was 18.4 µM [rising, partial curve, poor fit].

**Q.** What does the source list for `COc1ccc(C(=O)/C=C/Nc2ccc(S(=O)(=O)Nc3nc(C)cc(C)n3)cc2)c(OC)c1`?
**A.** AC50 [1]: 10 µM [rising, partial curve, poor fit]; AC50 [2]: 10 µM [falling, partial curve, poor fit]

**Q.** Which AC50 [1] does the source give for `CCOC(=O)N1CCN(C(=O)COc2cccc3c2CCN(Cc2ccccc2F)C3=O)CC1` here?
**A.** Its AC50 is 16.4 µM [falling, single point].

**Q.** For `O=C(CCCN1C(=O)/C(=C\c2cccs2)SC1=S)Nc1ccccn1`, which AC50 [1] is on record?
**A.** The AC50 was 12.6 µM [falling, partial curve].

**Q.** With `COc1cc(N/N=C/c2ccc(N(C)C)cc2)ncn1` as the molecule, how does the AC50 [1] read?
**A.** The AC50 was 3.55 µM [rising, partial curve, poor fit].

**Q.** Which AC50 [1] does the source give for `Cc1ccc(C(=O)CC(=O)c2cccc(F)c2)c(O)c1` here?
**A.** Its AC50 is 4.11 µM [rising, full curve, poor fit].

**Q.** For `CCOC(=O)c1csc(NC(=O)c2ccc3c(c2)OCCO3)n1`, which AC50 [1] is on record?
**A.** The AC50 was 0.891 µM [falling, full curve, poor fit].

**Q.** For `CCN(CC(=O)Nc1ccccc1OC)C(=O)CN1C(=O)NC(C)(c2ccccc2)C1=O` (stereo unspecified), which AC50 [1] is on record?
**A.** The AC50 was 6.51 µM [rising, single point].

**Q.** With `COc1cc2ccccc2cc1C(=O)Nc1cccnc1` as the molecule, how does the AC50 [1] read?
**A.** The AC50 was 32.6 µM [falling, single point].

**Q.** Which AC50 [1] does the source give for `CCN(CC)c1ccc(NC(=O)C2CCCC2)cc1` here?
**A.** Its AC50 is 0.501 µM [rising, partial curve, poor fit].

**Q.** Which AC50 [1] does the source give for `Cc1ccc(C)c(-c2nc3ccc(N)cc3[nH]2)c1` here?
**A.** The AC50 was 10.3 µM [falling, partial curve, poor fit].

**Q.** For `C/C(CC(=O)Nc1ccc2c(c1)OCCO2)=N\NC(=O)c1cccc(O)c1`, which AC50 [1] is on record?
**A.** The AC50 was 14.1 µM [falling, partial curve].

**Q.** Which AC50 [1] does the source give for `COc1cccc(C(=O)OCC(=O)c2ccc(Br)s2)c1` here?
**A.** The AC50 was 31.6 µM [falling, single point].

**Q.** For `CCSc1nnc(NC(=O)c2ccc(C)o2)s1`, which AC50 [1] is on record?
**A.** The AC50 was 13 µM [falling, partial curve, poor fit].

**Q.** For `O=C(COc1ccc(Cl)cc1)Nc1ccc2oc(=O)ccc2c1`, which AC50 [1] is on record?
**A.** Its AC50 is 0.794 µM [falling, full curve, poor fit].

**Q.** For `COc1ccc(CNC(=O)CN2C(=O)COc3ccc(S(=O)(=O)N4CCOCC4)cc32)cc1`, which AC50 [1] is on record?
**A.** Its AC50 is 3.16 µM [falling, partial curve, poor fit].

**Q.** For `CC(=O)c1ccc(NC(=O)CSc2cn[nH]n2)cc1`, which AC50 [1] is on record?
**A.** Its AC50 is 10 µM [falling, partial curve].
